{
  "source": "patent US10858384B2",
  "about": "“Synthetic molecule constructs” (KODE BIOTECH LIMITED, priority 2004, dated 2020)",
  "system": "RBCs",
  "assay": "Evaluation of insertion of different lipid tails by agglutination with the relevant antisera",
  "format": "cell-based",
  "parameters": "scale not given here",
  "conditions": "second series",
  "text": "Transformation of RBCs with synthetic glycolipids with different lipid tails was first evaluated (Tables 22 and 24).",
  "note": "For at least one compound, name, drawing or mass did not settle the structure.",
  "data": [
    {"molecule": "CCCCCCCCCCCCCCCCCC(=O)OC[C@H](COP(=O)(O)OCCNC(=O)CCCCC(=O)NCCCO[C@@H]1O[C@H](CO)[C@H](O)[C@H](O[C@H]2O[C@H](CO)[C@H](O)[C@H](O)[C@H]2NC(C)=O)[C@H]1O[C@@H]1O[C@@H](C)[C@@H](O)[C@@H](O)[C@@H]1O)OC(=O)CCCCCCCCCCCCCCCCC", "note": "[Atri-sp-Ad-DSPE (III)]", "values": [
      {"measurement": "Agglutination score", "setting": "10 μg/mL, Alba anti-A", "value": "2+"},
      {"measurement": "Agglutination score", "setting": "10 μg/mL, Bio anti-A", "value": "2+"},
      {"measurement": "Agglutination score", "setting": "50 μg/mL, Alba anti-A", "value": "2+"},
      {"measurement": "Agglutination score", "setting": "50 μg/mL, Bio anti-A", "value": "2+"},
      {"measurement": "Agglutination score", "setting": "100 μg/mL, Alba anti-A", "value": "2-3+"},
      {"measurement": "Agglutination score", "setting": "100 μg/mL, Bio anti-A", "value": "2-3+"},
      {"measurement": "Agglutination score", "setting": "250 μg/mL, Alba anti-A", "value": "2-3+"},
      {"measurement": "Agglutination score", "setting": "250 μg/mL, Bio anti-A", "value": "3+"}
    ]}
  ]
}
